{"sequences": {"note": "Protein sequences, listed by entry. Tags and fused reporters are not part of them. Lines headed by an entry give the natural chain unless they say otherwise; changes in a name come on top.", "UniProt P38135": "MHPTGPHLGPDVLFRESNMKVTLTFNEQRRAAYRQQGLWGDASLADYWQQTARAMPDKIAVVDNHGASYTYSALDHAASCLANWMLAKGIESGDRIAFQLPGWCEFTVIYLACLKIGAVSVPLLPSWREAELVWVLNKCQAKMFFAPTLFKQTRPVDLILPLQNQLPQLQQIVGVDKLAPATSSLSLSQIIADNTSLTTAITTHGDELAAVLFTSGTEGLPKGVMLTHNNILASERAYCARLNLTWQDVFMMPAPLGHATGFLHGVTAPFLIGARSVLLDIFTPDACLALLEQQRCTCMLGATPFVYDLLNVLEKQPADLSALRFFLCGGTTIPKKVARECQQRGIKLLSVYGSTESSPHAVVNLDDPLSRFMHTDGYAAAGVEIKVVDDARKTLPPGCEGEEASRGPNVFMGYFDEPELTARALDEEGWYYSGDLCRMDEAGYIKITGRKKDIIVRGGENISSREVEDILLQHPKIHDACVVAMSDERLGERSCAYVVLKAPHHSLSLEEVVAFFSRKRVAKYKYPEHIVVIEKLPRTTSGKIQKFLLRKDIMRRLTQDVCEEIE", "UniProt P39165": "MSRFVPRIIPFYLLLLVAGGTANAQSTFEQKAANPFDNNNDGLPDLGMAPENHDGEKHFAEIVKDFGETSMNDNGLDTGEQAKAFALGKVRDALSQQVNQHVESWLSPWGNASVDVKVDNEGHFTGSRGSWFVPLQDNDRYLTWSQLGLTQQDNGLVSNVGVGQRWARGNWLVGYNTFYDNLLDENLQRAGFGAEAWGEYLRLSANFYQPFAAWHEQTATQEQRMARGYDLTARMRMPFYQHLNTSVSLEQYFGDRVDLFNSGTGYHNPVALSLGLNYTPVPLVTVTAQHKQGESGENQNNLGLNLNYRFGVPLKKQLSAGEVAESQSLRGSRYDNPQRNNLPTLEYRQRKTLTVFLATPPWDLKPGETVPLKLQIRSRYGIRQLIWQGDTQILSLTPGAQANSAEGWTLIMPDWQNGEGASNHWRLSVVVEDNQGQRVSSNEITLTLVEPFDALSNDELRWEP", "UniProt P37760": "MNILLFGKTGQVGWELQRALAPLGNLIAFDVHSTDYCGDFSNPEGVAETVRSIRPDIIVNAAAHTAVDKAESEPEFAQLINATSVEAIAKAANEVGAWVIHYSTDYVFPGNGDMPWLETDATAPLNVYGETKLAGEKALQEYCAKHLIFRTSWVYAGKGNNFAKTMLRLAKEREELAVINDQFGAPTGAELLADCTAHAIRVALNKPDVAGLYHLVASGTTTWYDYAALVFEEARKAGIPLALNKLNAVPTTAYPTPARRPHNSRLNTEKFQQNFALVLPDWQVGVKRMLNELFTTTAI", "UniProt P39383": "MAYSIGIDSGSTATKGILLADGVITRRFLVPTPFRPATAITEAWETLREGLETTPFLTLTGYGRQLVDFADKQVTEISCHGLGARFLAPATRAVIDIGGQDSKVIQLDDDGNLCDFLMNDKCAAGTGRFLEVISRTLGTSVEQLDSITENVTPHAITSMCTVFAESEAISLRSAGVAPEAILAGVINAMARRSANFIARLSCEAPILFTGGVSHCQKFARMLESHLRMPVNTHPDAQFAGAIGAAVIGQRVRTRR", "UniProt P36673": "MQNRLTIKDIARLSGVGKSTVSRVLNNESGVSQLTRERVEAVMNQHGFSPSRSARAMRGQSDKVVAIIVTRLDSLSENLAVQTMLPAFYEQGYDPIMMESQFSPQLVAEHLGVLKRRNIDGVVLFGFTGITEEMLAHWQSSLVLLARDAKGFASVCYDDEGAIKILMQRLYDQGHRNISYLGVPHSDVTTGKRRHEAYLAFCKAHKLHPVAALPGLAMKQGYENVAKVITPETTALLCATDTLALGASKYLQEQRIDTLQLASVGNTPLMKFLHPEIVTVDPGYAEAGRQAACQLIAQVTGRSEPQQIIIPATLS", "UniProt P37338": "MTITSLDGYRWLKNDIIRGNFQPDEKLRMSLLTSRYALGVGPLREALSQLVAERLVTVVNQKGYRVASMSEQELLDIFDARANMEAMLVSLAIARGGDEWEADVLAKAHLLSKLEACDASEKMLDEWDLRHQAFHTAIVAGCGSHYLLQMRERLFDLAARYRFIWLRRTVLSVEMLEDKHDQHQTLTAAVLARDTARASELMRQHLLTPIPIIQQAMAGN", "UniProt P37767": "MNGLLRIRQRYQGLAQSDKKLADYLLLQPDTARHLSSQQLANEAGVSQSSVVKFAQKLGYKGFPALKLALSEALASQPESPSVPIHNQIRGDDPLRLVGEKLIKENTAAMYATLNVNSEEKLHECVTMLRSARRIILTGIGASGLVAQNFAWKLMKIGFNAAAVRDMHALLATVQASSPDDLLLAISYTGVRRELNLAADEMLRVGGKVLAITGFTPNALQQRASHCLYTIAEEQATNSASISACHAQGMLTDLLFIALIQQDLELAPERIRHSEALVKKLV", "UniProt P35340": "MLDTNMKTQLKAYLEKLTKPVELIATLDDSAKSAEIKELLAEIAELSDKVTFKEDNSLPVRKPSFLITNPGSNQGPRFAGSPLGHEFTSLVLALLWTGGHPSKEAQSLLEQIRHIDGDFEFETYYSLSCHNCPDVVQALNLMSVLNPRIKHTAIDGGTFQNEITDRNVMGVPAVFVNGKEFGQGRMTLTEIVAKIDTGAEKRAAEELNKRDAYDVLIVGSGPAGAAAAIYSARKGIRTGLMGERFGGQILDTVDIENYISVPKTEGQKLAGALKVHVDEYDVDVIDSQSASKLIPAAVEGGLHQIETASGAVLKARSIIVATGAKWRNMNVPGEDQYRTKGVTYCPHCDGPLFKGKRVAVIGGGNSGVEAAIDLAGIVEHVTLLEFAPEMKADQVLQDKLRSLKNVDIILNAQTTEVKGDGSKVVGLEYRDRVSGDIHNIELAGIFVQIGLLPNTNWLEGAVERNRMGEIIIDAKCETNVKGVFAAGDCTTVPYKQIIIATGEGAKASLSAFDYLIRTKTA", "UniProt P45577": "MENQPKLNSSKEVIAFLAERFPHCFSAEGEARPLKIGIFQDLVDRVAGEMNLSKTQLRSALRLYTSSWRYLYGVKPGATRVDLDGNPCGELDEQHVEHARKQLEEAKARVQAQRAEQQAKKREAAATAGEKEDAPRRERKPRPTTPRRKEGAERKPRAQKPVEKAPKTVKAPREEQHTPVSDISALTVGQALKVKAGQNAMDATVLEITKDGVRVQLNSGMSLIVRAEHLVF", "UniProt P37313": "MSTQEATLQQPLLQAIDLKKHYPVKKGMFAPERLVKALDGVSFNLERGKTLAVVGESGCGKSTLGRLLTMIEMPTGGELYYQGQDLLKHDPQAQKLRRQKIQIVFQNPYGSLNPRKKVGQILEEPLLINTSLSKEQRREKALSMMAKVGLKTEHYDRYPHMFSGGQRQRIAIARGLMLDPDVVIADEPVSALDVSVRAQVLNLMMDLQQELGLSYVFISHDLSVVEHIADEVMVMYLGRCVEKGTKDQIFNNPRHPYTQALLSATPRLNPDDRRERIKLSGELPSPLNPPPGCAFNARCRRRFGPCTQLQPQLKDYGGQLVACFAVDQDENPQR", "UniProt P43319": "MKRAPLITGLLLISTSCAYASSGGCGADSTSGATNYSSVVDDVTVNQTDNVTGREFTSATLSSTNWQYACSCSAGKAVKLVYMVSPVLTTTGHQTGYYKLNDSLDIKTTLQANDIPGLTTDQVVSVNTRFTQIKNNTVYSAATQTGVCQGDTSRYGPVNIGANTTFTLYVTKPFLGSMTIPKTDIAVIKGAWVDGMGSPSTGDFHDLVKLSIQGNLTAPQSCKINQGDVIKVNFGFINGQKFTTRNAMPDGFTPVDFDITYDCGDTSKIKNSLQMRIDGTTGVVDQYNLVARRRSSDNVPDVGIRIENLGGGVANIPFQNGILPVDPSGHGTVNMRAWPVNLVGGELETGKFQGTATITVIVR", "UniProt P39342": "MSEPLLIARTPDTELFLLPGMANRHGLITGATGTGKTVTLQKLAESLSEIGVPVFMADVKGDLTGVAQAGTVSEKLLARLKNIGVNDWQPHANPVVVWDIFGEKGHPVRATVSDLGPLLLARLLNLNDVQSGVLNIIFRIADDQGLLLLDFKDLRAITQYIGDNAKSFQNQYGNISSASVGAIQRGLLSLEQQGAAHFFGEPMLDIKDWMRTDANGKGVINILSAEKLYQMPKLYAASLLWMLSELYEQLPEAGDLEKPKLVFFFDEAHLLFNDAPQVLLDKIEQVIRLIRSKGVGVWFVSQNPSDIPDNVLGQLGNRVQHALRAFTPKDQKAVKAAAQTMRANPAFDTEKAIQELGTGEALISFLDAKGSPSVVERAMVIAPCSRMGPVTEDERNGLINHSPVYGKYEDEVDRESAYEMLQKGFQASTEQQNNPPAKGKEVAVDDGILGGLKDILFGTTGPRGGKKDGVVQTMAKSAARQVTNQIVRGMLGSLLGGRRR", "UniProt P42630": "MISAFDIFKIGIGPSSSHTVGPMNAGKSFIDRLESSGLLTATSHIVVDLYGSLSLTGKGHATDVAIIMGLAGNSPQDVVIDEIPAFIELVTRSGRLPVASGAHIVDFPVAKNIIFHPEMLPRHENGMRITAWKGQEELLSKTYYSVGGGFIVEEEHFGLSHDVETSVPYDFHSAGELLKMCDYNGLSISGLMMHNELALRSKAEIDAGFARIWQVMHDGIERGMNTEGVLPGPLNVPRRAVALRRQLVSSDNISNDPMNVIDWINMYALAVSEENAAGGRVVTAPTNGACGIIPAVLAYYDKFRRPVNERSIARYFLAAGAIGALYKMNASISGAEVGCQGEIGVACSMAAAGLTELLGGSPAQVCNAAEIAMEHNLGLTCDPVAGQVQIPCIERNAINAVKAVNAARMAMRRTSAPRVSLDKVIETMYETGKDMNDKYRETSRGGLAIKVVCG", "UniProt P39297": "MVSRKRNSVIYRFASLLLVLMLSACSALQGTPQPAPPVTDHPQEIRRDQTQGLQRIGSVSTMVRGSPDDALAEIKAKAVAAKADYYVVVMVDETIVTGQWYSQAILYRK", "UniProt P43672": "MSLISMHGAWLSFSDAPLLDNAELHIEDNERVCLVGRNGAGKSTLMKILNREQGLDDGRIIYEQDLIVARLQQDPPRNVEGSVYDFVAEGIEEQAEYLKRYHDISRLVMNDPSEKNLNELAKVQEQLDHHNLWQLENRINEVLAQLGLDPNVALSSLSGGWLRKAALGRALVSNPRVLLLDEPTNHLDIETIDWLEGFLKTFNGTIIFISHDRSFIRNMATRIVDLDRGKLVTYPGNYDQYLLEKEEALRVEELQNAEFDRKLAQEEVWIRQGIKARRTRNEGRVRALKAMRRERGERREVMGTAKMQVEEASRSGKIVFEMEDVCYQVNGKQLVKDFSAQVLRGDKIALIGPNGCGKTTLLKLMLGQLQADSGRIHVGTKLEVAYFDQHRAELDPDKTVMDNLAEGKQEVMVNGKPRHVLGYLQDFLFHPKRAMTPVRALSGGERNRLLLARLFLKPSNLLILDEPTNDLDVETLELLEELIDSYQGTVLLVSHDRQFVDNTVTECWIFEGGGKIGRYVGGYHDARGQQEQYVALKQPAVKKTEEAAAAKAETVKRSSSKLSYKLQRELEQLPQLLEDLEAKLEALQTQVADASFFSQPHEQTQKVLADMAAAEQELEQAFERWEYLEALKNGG", "UniProt P37637": "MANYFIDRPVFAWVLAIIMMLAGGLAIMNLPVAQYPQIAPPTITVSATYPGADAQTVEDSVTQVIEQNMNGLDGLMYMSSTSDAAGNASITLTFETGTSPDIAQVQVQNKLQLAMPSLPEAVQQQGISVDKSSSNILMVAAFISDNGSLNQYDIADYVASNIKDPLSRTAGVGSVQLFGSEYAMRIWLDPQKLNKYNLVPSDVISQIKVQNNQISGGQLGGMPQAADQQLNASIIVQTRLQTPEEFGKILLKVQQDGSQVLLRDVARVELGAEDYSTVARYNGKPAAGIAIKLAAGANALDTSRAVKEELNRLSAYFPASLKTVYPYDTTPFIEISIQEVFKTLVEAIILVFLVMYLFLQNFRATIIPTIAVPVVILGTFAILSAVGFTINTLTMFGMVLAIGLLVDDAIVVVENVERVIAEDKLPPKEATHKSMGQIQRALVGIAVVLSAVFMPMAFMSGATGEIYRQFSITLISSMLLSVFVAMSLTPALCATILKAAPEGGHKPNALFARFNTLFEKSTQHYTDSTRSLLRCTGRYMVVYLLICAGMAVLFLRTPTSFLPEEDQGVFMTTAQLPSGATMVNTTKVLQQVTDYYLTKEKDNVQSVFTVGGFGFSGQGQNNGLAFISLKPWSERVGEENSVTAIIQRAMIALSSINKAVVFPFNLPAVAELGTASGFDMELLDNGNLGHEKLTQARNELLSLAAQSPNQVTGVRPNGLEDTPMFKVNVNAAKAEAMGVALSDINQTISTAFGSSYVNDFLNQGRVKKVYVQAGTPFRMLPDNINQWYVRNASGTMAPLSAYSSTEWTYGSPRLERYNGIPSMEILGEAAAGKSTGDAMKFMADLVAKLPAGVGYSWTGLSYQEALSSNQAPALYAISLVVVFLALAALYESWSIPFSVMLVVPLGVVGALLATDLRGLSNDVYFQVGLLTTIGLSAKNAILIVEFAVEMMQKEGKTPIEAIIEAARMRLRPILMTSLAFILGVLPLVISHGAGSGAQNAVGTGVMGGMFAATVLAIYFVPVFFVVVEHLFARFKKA"}, "source": "the supplement of paper PMC12819154", "about": "“High-throughput peptide-centric local stability assay extends protein–ligand identification to membrane proteins, tissues and bacteria” (Nature Structural & Molecular Biology, 2025)", "note": "Some of the results follow. Small differences around the control level are noise.", "data": [{"compound": "CC1(C)S[C@@H]2[C@H](NC(=O)[C@H](N)c3ccccc3)C(=O)N2[C@H]1C(=O)O [ampicillin]", "assay": "log2 fold change of tryptic peptide abundance, ligand vs vehicle (limited proteolysis) (log2 ratio); higher = more trypsin-susceptible (destabilized)", "details": "ligand concentration: 10 uM; sample: E. coli crude lysate", "values": [{"target": "UniProt P38135 (peptide sequence: EVEDILLQHPK, peptide start residue: 466)", "log2 fold change": -0.998}, {"target": "UniProt P39165 (peptide sequence: NNLPTLEYR, peptide start residue: 340)", "log2 fold change": 0.149}, {"target": "UniProt P37760 (peptide sequence: AGIPLALNK, peptide start residue: 237)", "log2 fold change": 0.21}, {"target": "UniProt P37676 (peptide sequence: AFSDALGNQVR, peptide start residue: 297)", "log2 fold change": 0.426}, {"target": "UniProt P39383 (peptide sequence: GILLADGVITRR, peptide start residue: 16)", "log2 fold change": -0.482}, {"target": "UniProt P42599 (peptide sequence: QTGVIFPADSVK, peptide start residue: 316)", "log2 fold change": 0.509}, {"target": "UniProt P45541 (peptide sequence: ALLPEDER, peptide start residue: 269)", "log2 fold change": -0.117}, {"target": "UniProt P37689 (peptide sequence: QMGNSEVGHVNLGAGR, peptide start residue: 60)", "log2 fold change": 0.12}, {"target": "UniProt P36771 (peptide sequence: LEQLVGKELFAR, peptide start residue: 49)", "log2 fold change": -0.26}, {"target": "UniProt P36673 (peptide sequence: NISYLGVPHSDVTTGK, peptide start residue: 177)", "log2 fold change": -0.466}, {"target": "UniProt P39376 (peptide sequence: IFHSQIR, peptide start residue: 73)", "log2 fold change": 0.188}, {"target": "UniProt P37338 (peptide sequence: AHLLSKLEACDASEK, peptide start residue: 108)", "log2 fold change": 0.632}, {"target": "UniProt P37024 (peptide sequence: DLSDFWK, peptide start residue: 767)", "log2 fold change": -0.169}, {"target": "UniProt P37641 (peptide sequence: LIEVLPGYR, peptide start residue: 255)", "log2 fold change": -0.313}, {"target": "UniProt P37642 (peptide sequence: VSQALETVTTTAEKVQR, peptide start residue: 31)", "log2 fold change": -0.607}, {"target": "UniProt P37767 (peptide sequence: QRYQGLAQSDKK, peptide start residue: 9)", "log2 fold change": -0.169}, {"target": "UniProt P39099 (peptide sequence: LTQIAIADSDK, peptide start residue: 151)", "log2 fold change": 0.696}, {"target": "UniProt P39180 (peptide sequence: LQAGAFNYSLNR, peptide start residue: 681)", "log2 fold change": 0.127}, {"target": "UniProt P39356 (peptide sequence: VASLHVPAVVSSAR, peptide start residue: 179)", "log2 fold change": -0.221}, {"target": "UniProt P35340 (peptide sequence: HTAIDGGTFQNEITDR, peptide start residue: 151)", "log2 fold change": 0.298}, {"target": "UniProt P43671 (peptide sequence: KAGQLSPGDPVLFR, peptide start residue: 166)", "log2 fold change": 0.517}, {"target": "UniProt P37661 (peptide sequence: QGGAEDNPQR, peptide start residue: 305)", "log2 fold change": 0.485}, {"target": "UniProt P45577 (peptide sequence: VAGEMNLSK, peptide start residue: 46)", "log2 fold change": 0.101}, {"target": "UniProt P37313 (peptide sequence: LNPDDRR, peptide start residue: 268)", "log2 fold change": -0.286}, {"target": "UniProt P39407 (peptide sequence: DIQQFIEKPPGKLR, peptide start residue: 248)", "log2 fold change": -0.54}, {"target": "UniProt P37647 (peptide sequence: IAVIGECMIELSEKGADVKR, peptide start residue: 5)", "log2 fold change": 0.402}, {"target": "UniProt P37197 (peptide sequence: LEKDPQLK, peptide start residue: 283)", "log2 fold change": 0.269}, {"target": "UniProt P43319 (peptide sequence: INQGDVIK, peptide start residue: 224)", "log2 fold change": -0.362}, {"target": "UniProt P39342 (peptide sequence: GKEVAVDDGILGGLKDILFGTTGPR, peptide start residue: 439)", "log2 fold change": -1.09}, {"target": "UniProt P42630 (peptide sequence: DMNDKYR, peptide start residue: 434)", "log2 fold change": 0.143}, {"target": "UniProt P45568 (peptide sequence: TILLANKESLVTCGR, peptide start residue: 119)", "log2 fold change": -0.277}, {"target": "UniProt P39297 (peptide sequence: IGSVSTMVR, peptide start residue: 56)", "log2 fold change": 0.327}, {"target": "UniProt P42632 (peptide sequence: KGAVASLTSVAKLPFTYAK, peptide start residue: 647)", "log2 fold change": -0.281}, {"target": "UniProt P43672 (peptide sequence: IHVGTKLEVAYFDQHR, peptide start residue: 376)", "log2 fold change": -0.948}, {"target": "UniProt P39315 (peptide sequence: VISEAGHEGK, peptide start residue: 181)", "log2 fold change": -0.384}, {"target": "UniProt P37637 (peptide sequence: KVYVQAGTPFR, peptide start residue: 768)", "log2 fold change": -0.33}]}]}
